Values quoted from earlier work, collected in patent US20240342133A1, “TOPICAL STATIN FORMULATION FOR TREATMENT OF LICHEN SCLEROSUS AND PSORIASIS” (TBT PHARMA, INC, priority 2023, published 2024).
For at least one compound, name, drawing or mass did not settle the structure.

Test system: methicillin resistant staph aureus (MRSA)
Conditions: cited from earlier work

CCC(C)(C)C(=O)O[C@H]1C[C@@H](C)C=C2C=C[C@H](C)[C@H](CC[C@@H]3C[C@@H](O)CC(=O)O3)[C@H]21 [simvastatin]
biosynthetic and cellular processes in bacteria (protein synthesis, key MRSA toxins): suppress
